Laboratory results reported in article PMC11231174.
No constants are given. Whether binding was seen depends on the method and setting. Binding seen in cells or lysates may run through a third protein. Some binding calls cover weakened binding; strength is not graded here.

Biological target: T1, TNF-α receptor Tnr1a (Tnfr1) (mouse) (UniProt P25118)
T1 sequence: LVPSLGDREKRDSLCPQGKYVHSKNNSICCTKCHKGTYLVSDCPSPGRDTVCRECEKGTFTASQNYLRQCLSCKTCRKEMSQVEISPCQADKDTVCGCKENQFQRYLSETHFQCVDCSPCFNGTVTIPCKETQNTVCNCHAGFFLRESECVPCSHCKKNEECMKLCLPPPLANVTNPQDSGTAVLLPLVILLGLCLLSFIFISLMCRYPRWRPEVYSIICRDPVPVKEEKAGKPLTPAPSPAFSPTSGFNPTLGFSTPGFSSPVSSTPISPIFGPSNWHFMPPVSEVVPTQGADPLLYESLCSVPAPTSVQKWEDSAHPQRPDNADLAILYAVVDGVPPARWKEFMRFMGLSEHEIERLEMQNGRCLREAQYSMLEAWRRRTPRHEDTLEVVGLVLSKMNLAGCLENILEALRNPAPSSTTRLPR
Assay: co-IP; cells or tissues lysed in NP-40 buffer with protease and phosphatase inhibitors; specific antibody, Protein A/G magnetic beads, washed with NP-40 buffer, eluted in SDS sample buffer, Western blot; sample and precipitating antibody not stated

binding: binds
Substance: Neuropilin-1 (Nrp1) (from UniProt P97333 22-923) (receptor)
